The values below come from article doi:10.1101/701474.

Chains of the proteins cited; added tags and fusions are not shown. Lines headed by an entry give the natural chain unless they say otherwise; changes in a name come on top. A line that says so, or that is headed by a name, gives the form on record, which may keep a tag or linker.
UniProt P14635: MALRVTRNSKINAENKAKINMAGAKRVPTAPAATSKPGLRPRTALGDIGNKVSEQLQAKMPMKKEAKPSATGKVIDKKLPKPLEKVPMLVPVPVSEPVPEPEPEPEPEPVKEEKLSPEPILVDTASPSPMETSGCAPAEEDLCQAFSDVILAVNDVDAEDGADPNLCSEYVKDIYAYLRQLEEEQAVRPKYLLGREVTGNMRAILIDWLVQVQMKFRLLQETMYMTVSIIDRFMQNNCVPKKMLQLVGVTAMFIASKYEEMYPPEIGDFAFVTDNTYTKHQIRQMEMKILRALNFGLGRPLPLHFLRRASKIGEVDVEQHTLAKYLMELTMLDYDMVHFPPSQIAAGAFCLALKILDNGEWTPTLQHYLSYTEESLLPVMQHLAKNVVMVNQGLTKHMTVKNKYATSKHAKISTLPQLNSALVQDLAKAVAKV
UniProt Q9Y6D9: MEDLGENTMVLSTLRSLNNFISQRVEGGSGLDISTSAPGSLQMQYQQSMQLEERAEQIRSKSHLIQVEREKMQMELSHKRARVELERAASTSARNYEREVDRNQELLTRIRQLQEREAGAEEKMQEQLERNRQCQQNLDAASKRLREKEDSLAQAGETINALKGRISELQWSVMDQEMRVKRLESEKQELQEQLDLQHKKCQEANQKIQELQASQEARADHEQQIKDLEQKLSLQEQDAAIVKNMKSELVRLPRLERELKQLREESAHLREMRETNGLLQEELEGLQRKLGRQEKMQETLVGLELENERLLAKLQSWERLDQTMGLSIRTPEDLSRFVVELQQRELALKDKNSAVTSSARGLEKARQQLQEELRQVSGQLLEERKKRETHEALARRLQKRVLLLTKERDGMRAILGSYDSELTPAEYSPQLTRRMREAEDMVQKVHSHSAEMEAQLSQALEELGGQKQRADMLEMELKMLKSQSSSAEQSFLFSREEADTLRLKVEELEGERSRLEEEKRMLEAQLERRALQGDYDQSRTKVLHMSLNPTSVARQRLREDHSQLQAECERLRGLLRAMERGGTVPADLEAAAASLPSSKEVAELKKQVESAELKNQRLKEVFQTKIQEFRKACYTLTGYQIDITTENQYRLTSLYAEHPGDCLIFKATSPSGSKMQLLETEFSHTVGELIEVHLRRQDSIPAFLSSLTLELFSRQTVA
MAD1 E53/56K (RPE1 clones 7D2 and 8B12) (Q9Y6D9, form named): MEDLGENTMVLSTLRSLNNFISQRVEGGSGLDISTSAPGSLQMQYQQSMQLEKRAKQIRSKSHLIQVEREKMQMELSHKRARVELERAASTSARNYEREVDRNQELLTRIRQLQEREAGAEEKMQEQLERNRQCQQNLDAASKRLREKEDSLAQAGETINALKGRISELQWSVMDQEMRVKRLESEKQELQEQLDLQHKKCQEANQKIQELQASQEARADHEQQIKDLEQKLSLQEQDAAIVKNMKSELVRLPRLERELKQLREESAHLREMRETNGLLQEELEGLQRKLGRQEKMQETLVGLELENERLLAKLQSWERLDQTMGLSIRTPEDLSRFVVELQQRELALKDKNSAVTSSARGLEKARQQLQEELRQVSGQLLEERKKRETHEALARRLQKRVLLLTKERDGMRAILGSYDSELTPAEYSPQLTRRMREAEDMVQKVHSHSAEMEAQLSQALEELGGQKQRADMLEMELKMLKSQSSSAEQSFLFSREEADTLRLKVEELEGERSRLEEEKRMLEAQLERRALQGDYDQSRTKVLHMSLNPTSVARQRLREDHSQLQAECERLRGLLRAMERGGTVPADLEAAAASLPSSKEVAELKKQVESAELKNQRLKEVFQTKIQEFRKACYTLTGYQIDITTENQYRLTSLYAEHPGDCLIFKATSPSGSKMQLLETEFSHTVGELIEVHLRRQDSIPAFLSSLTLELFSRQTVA

Results are given in words; binding and its absence hold for the method and conditions named. Binding seen in cells or lysates may run through a third protein.

This test concerns the target Cyclin B1 (RPE Cyclin B1-Venus+/-:Ruby-MAD2+/- cells) (human (endogenous in RPE1)) (UniProt P14635). Description: co-IP.

For the substance “MAD1 E53/56K (RPE1 clones 7D2 and 8B12) (from UniProt Q9Y6D9 1-718)”, the binding entry was “no binding”.
